These are yes or no findings as the source states them, for the method shown. Some results given as binding are weak or reduced against the parent protein; the word gives no strength. Tags and fused reporters may be left off the sequences shown. One block for each binder: values may come before it.
Assays:
[1] = molecular target: T1, Envy-Ste11 (yeast) (UniProt P23561); assay: single-color fluorescence lifetime cross-correlation spectroscopy
T1 sequence: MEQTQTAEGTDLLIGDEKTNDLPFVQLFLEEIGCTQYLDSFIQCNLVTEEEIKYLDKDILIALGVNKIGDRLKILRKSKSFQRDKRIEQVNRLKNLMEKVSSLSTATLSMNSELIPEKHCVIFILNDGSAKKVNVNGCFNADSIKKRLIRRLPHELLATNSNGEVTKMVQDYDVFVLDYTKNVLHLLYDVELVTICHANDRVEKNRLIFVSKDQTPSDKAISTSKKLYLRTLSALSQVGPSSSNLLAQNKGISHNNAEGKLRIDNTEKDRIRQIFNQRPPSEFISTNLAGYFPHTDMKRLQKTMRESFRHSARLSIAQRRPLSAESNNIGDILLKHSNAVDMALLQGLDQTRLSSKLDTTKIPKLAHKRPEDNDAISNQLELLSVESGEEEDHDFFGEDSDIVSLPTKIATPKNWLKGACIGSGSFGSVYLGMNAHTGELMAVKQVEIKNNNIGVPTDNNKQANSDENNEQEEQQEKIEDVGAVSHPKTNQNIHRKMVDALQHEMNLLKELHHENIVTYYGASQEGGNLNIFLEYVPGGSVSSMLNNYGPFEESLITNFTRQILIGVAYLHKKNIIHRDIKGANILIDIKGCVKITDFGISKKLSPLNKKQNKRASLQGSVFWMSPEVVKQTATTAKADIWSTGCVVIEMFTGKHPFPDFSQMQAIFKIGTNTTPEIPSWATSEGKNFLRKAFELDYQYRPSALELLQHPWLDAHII

[2] = molecular target: T2, Pre6 tagged with slmGFP (yeast) (UniProt P40303); assay: combined sc/dc-FLCCS
T2 sequence: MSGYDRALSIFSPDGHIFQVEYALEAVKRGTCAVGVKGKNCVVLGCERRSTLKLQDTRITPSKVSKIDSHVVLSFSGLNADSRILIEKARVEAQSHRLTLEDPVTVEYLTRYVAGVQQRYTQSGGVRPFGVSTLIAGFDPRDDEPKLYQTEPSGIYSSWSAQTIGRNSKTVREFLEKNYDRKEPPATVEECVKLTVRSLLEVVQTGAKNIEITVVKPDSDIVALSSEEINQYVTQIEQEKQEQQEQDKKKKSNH

[3] = molecular target: T3, Rpn7 tagged with Envy (yeast) (UniProt Q06103); assay: combined sc/dc-FLCCS
T3 sequence: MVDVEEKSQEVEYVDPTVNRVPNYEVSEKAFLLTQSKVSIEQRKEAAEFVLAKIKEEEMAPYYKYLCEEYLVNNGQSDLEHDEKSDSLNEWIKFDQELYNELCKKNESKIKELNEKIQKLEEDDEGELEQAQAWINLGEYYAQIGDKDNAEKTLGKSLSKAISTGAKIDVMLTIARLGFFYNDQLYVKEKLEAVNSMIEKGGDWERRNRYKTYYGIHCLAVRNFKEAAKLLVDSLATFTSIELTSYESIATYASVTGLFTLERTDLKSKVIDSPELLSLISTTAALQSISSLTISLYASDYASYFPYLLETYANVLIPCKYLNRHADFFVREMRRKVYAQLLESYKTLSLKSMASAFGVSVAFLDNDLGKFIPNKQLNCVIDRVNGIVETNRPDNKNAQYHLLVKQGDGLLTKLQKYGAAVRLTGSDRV

[4] = molecular target: T2, Pre6 tagged with slmGFP (yeast); assay: single-color fluorescence lifetime cross-correlation spectroscopy
[5] = molecular target: T2, Pre6 tagged with slmGFP (yeast); assay: dual color fluorescence lifetime cross-correlation spectroscopy

binding [1]: no binding
B1: slmGFP-Don1 (protein, UniProt Q05610 1-365)
chain: MGKKNRKGKENNAAKTSFLKVENIKNTNSGLELPSQDYTNVEEKESSPKTDFPLITKEHVNTKTDSNILDYPTIGDLVSSVEKLCVLKELKIAFPEVDDTLIKAILIASQGVLEPAFNSLLYYSSPEENTDFALPMKPISVEDYSKINVSEILQREIFDDIEDEFSGQGINGSMVISKIESELSSLAEHIGNISTPGSNREVAESTRNVAVAEGHNTILSNEDSILKGKEKGKEEEKEKGEEKGVNSLKGAAVKVVAKSLKNNRIPVTVKRNEPSNNLFDVLNCDESEEEEEQDVETNTSNQERKNQGGNTEVPEAQRDSADRLPAKDDGGYKSAFGTDSCGLFAADAKDEKKQVHPSRQELSFT

binding [2]: binds | binding [3]: binds
B2: Rad23 tagged with 3mCherry (protein, UniProt P32628 1-398)
chain: MVSLTFKNFKKEKVPLDLEPSNTILETKTKLAQSISCEESQIKLIYSGKVLQDSKTVSECGLKDGDQVVFMVSQKKSTKTKVTEPPIAPESATTPGRENSTEASPSTDASAAPAATAPEGSQPQEEQTATTERTESASTPGFVVGTERNETIERIMEMGYQREEVERALRAAFNNPDRAVEYLLMGIPENLRQPEPQQQTAAAAEQPSTAATTAEQPAEDDLFAQAAQGGNASSGALGTTGGATDAAQGGPPGSIGLTVEDLLSLRQVVSGNPEALAPLLENISARYPQLREHIMANPEVFVSMLLEAVGDNMQDVMEGADDMVEGEDIEVTGEAAAAGLGQGEGEGSFQVDYTPEDDQAISRLCELGFERDLVIQVYFACDKNEEAAANILFSDHAD

binding [4]: binds | binding [2]: binds
B3: Rpn7 tagged with Envy (protein, UniProt Q06103 1-429)
chain: T3 sequence

binding [5]: binds
B4: Rpn7 tagged with 3mCherry (protein, UniProt Q06103 1-429)
chain: T3 sequence
